Results published in patent US20250109171A1, “COMPOUNDS AND COMPOSITIONS FOR TARGETED THERAPY OF RENAL DISEASES” (SHANGHAI MICURX PHARMACEUTICALS CO., LTD., priority 2021, published 2025).
Some entries share one result that the patent states for a list of compounds. Positions of bridges follow the written chain, without caps; N, C: chain ends. Non-standard residues stand in square brackets, D forms with d. Residues, ends and D or L forms follow the SMILES beside them. *: point of attachment. Succinyl(O21-dexamethasone) = C[C@@H]1C[C@H]2[C@@H]3CCC4=CC(=O)C=C[C@]4(C)[C@@]3(F)[C@@H](O)C[C@]2(C)[C@@]1(O)C(=O)COC(=O)CCC(=O)*; Dab = NCC[C@H](N)C(=O)O

Test: Rodent (mouse) PK model of intravenous administration: dexamethasone levels in kidney tissue
Type: in vivo
Conditions: last time point evaluated T = 24 h
Experimental: Preferential renal targeting validating the delivery of compounds provided herein into kidneys (or at the site of a kidney injury) is evaluated, for example, by pharmacokinetic (PK) tests, such as in a standard rodent PK test. PK data are generally used to establish the key parameters predictive of the therapy outcome. Thus, a drug concentration (C) at given time points, drug concentration at the target tissue(s) (CTarget), area under the curve (AUC) for a plot monitoring the change in the systemic drug concentration over time and other parameters are generally predictive of therapeutic efficacy. For example, drug concentration at an organ affected by cancer is important for effective action of anticancer agents (as described, for example, by Zhang et al. in Drug Metabolism and Disposition. 2019, vol. 47, p. 1122).
Representative compounds provided herein were tested in a rodent PK model of intravenous administration performed analogously to methods described in the monograph Current Protocols in Pharmacology, 2005, 7.1.1-7.1.26, John Wiley & Sons, Inc. Illustrative mouse PK data for the compounds of Examples 1 and 2 are summarized in the Table 1 below.

CC(C)C[C@@H]1NC(=O)[C@@H](Cc2ccccc2)NC(=O)[C@H](CCN)NC(=O)[C@@H](NC(=O)[C@H](CCN)NC(=O)[C@@H](NC(=O)CCC(=O)OCC(=O)[C@@]2(O)[C@H](C)C[C@H]3[C@@H]4CCC5=CC(=O)C=C[C@]5(C)[C@@]4(F)[C@@H](O)C[C@@]32C)[C@@H](C)O)CCNC(=O)[C@H]([C@@H](C)O)NC(=O)[C@H](CCN)NC(=O)[C@H](CCN)NC1=O [Example 2] ({Succinyl(O21-dexamethasone)}-T[Dab][Dab][Dab][dF]L[Dab][Dab]T; lactam 3-C)
Persistence of release of dexamethasone in kidney: at least 24 h
